The supplement of paper PMC10849652
Some of the results follow.

The chains behind the UniProt entries cited, without tags or fusion partners. Where a name states a change or a piece, a line headed by the entry shows the natural chain unless it says otherwise.
UniProt P54802: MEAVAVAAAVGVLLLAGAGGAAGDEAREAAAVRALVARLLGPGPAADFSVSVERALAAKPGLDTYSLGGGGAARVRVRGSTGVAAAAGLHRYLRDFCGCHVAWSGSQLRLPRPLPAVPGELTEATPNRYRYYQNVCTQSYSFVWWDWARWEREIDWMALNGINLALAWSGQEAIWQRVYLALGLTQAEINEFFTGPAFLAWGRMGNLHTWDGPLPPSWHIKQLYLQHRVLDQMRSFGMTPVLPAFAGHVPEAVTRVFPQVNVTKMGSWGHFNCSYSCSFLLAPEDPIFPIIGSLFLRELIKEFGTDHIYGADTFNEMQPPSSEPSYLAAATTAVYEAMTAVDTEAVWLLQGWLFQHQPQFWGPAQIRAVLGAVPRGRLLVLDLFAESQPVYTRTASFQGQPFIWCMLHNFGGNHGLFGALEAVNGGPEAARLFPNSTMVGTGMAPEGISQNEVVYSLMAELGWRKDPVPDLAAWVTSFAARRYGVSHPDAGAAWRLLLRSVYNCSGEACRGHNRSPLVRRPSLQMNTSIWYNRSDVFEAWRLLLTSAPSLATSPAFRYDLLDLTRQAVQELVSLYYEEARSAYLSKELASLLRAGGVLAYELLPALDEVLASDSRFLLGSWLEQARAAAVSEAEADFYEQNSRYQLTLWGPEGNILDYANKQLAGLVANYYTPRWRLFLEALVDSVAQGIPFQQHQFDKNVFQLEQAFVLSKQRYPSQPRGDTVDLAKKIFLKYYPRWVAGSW
UniProt O75380, whole entry, looked up: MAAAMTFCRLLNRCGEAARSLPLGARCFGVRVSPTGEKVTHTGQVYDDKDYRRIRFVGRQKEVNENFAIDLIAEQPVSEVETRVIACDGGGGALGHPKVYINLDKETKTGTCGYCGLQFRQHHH
UniProt Q9H0A0: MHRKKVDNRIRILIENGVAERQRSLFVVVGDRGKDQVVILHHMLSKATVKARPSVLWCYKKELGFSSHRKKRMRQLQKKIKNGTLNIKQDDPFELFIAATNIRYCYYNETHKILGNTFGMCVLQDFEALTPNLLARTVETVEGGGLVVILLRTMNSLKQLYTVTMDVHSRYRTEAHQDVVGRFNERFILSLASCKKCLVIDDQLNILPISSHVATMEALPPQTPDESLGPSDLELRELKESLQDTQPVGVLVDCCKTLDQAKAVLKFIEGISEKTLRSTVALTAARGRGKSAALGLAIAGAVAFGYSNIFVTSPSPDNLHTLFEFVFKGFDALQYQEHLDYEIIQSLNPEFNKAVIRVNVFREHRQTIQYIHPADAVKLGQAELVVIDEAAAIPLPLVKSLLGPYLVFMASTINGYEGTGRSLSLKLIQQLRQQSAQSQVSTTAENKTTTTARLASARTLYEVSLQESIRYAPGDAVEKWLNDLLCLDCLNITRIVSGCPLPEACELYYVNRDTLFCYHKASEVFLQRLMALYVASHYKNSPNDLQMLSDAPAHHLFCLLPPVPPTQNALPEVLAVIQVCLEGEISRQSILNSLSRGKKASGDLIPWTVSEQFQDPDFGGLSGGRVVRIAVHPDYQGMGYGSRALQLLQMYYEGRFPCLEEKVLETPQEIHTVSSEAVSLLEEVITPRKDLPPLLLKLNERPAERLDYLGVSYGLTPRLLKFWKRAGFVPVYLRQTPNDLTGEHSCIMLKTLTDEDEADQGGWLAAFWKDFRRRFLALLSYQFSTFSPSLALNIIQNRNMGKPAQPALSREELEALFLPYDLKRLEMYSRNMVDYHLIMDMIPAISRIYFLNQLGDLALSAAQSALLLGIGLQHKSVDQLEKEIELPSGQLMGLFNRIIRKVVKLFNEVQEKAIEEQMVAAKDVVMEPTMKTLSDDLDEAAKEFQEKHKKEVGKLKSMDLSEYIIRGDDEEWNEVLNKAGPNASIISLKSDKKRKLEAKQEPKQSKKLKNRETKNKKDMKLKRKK
UniProt Q9UN36: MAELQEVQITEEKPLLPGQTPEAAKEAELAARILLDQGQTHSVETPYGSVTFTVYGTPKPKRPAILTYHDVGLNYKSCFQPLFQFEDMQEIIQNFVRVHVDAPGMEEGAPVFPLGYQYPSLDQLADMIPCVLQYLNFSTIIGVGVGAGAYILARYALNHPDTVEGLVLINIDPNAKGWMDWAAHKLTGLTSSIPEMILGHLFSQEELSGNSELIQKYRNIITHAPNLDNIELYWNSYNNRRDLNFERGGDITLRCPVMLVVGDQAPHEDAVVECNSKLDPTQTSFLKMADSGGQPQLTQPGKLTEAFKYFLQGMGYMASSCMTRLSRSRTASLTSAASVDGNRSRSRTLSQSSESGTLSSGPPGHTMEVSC
UniProt O43776: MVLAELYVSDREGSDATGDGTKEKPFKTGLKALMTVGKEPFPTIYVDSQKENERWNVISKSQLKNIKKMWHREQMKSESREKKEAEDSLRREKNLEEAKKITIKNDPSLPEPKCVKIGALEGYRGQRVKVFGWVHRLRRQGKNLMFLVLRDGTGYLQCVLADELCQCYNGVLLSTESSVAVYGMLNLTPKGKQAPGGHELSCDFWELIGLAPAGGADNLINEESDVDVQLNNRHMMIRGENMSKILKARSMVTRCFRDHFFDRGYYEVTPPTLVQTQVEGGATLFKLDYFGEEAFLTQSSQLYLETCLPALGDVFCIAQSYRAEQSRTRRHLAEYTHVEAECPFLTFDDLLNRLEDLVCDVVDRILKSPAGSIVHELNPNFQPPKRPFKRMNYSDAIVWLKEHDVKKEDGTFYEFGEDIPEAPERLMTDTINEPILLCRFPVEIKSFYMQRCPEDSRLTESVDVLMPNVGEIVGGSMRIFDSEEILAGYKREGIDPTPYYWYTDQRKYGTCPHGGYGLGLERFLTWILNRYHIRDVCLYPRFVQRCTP
UniProt O95298, whole entry, looked up: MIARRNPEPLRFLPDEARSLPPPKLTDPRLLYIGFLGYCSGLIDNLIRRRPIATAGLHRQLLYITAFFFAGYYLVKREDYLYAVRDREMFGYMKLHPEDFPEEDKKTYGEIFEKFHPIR
UniProt O95168, whole entry, looked up: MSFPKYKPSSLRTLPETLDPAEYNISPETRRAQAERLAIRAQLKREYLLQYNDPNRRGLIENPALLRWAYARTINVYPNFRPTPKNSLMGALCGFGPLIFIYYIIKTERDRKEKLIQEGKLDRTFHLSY
UniProt P43490: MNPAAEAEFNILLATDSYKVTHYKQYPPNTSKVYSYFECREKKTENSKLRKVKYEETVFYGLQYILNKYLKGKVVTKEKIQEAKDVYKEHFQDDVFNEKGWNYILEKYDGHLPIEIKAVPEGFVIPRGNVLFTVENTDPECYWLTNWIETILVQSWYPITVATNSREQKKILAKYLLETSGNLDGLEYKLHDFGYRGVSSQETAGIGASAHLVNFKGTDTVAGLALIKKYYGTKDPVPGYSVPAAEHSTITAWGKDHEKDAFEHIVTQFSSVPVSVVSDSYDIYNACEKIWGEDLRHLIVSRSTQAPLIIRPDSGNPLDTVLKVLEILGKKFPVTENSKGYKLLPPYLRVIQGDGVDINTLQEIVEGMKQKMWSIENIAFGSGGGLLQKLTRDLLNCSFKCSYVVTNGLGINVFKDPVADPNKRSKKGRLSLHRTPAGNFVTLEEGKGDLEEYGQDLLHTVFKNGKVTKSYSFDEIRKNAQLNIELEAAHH
UniProt O43674, whole entry, looked up: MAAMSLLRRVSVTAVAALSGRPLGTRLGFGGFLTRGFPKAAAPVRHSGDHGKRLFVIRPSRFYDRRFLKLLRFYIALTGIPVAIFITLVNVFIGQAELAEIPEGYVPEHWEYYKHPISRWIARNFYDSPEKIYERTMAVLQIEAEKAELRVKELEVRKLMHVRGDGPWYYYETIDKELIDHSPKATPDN
UniProt Q8NC96: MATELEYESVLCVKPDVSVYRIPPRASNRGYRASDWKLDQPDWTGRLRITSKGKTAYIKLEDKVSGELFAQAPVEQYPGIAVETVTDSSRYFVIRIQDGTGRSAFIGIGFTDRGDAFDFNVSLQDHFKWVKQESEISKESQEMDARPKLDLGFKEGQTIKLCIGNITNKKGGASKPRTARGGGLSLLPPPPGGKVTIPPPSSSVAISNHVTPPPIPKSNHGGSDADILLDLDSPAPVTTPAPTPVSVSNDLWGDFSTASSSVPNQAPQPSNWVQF
UniProt P52298: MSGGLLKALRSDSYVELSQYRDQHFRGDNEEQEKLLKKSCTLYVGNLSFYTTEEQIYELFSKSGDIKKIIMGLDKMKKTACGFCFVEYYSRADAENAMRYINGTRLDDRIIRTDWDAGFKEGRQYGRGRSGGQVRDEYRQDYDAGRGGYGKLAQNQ
UniProt Q9UBB6: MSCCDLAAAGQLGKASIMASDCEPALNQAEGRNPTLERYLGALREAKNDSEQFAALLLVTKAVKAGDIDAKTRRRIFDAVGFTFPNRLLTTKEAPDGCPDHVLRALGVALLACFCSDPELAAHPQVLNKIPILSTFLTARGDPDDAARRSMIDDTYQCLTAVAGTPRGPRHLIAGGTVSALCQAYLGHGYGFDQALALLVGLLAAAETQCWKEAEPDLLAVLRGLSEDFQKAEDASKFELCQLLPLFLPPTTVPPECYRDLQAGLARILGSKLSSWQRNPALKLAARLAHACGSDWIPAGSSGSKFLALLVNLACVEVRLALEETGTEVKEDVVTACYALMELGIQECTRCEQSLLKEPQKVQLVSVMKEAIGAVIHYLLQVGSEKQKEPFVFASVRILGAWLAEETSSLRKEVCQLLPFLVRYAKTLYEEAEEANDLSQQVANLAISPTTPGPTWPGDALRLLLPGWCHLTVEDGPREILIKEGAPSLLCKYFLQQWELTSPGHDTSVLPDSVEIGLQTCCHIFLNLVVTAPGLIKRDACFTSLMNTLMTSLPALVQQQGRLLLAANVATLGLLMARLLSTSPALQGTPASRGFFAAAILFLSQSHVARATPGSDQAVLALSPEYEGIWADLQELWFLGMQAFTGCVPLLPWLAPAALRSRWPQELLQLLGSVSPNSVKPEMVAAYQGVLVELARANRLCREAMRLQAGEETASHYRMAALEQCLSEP
UniProt Q5TEU4: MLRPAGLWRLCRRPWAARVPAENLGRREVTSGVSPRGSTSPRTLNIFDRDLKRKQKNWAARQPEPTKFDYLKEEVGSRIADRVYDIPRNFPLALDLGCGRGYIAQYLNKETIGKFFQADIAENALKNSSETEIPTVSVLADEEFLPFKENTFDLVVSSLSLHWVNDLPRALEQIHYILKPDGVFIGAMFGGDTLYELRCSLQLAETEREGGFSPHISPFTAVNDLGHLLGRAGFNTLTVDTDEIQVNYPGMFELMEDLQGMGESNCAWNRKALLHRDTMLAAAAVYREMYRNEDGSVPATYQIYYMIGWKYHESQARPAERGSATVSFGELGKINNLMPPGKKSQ
UniProt Q9NX14, whole entry, looked up: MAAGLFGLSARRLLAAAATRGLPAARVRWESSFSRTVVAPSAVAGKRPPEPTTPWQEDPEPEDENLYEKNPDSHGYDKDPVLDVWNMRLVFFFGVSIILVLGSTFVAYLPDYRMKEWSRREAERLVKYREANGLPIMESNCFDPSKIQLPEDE
UniProt P49821, whole entry, looked up: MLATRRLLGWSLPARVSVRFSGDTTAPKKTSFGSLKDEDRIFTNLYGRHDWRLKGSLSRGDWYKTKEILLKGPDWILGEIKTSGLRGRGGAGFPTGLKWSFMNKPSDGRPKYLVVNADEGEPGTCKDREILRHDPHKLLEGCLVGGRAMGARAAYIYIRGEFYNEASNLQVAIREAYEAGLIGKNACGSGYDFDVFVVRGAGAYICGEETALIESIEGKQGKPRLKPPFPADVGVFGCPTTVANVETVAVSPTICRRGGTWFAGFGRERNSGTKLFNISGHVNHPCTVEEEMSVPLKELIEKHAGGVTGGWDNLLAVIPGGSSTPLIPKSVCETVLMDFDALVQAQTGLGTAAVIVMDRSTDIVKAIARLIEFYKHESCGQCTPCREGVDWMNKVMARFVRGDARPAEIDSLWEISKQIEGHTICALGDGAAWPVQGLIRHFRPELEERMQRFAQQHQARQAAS

Assays:
Assay in all cases: log2 fold change, soluble protein after heating vs DMSO (PISA); higher = thermal stabilisation; K562 cells, 10 uM, 30 min; active = over 0.2 and 3.5 SD of the protein, either way, in both replicates (recomputed)
[1] = compound: COC1=CC=C(C=C1)CN2C=CC3=C2C=C(C=C3)C(=O)NO
Summary of the method: (§1)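 For each measurement, 10 μM compound was applied for 30 min to K562 cells at 2×10^6 cells/mL. Aliquots were heated for 3 min across 48°C-58°C, pooled, and extracted in PBS with 0.5% NP-40 at 4°C; the supernatant after 21,000xg for 90 min was soluble protein. This was quantified by TMTpro 16plex LC-MS/MS with channel sums equalised, and thermal stability was reported relative to control samples from duplicates, on a log2 fold-change scale.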

filanesib = compound: CON(C)C(=O)N1N=C(c2cc(F)ccc2F)S[C@@]1(CCCN)c1ccccc1 [filanesib]
Summary of the method: as §1

zotarolimus = compound: CO[C@H]1C[C@@H]2CC[C@@H](C)[C@@](O)(O2)C(=O)C(=O)N2CCCC[C@H]2C(=O)O[C@H]([C@H](C)C[C@@H]2CC[C@H](n3cnnn3)[C@H](OC)C2)CC(=O)[C@H](C)/C=C(\C)[C@@H](O)[C@@H](OC)C(=O)[C@H](C)C[C@H](C)/C=C/C=C/C=C/1C [zotarolimus]
Summary of the method: as §1

idasanutlin = compound: COc1cc(C(=O)O)ccc1NC(=O)[C@@H]1N[C@@H](CC(C)(C)C)[C@](C#N)(c2ccc(Cl)cc2F)[C@H]1c1cccc(Cl)c1F [idasanutlin]
Summary of the method: as §1

alisertib = compound: COc1cc(Nc2ncc3c(n2)-c2ccc(Cl)cc2C(c2c(F)cccc2OC)=NC3)ccc1C(=O)O [alisertib]
Summary of the method: as §1

[2] = compound: COc1cc2nc(-c3cc(F)ccc3O)nc(N[C@@H]3CNC[C@H]3C(C)(C)O)c2cc1OC
Summary of the method: as §1

gefitinib = compound: COc1cc2ncnc(Nc3ccc(F)c(Cl)c3)c2cc1OCCCN1CCOCC1 [gefitinib]
Summary of the method: as §1

[3] = compound: COc1cccc2cc(-c3nc([C@H]4CC[C@H](C(=O)O)CC4)n4ncnc(N)c34)[nH]c12
Summary of the method: as §1

lapatinib = compound: CS(=O)(=O)CCNCc1ccc(-c2ccc3ncnc(Nc4ccc(OCc5cccc(F)c5)c(Cl)c4)c3c2)o1 [lapatinib]
Summary of the method: as §1

pictilisib = compound: CS(=O)(=O)N1CCN(Cc2cc3nc(-c4cccc5[nH]ncc45)nc(N4CCOCC4)c3s2)CC1 [pictilisib]
Summary of the method: as §1

[4] = compound: CS(=O)(=O)c1ccc(-c2cnc(N)c(C(=O)Nc3ccccc3)n2)cc1
Summary of the method: as §1

crizotinib = compound: C[C@@H](Oc1cc(-c2cnn(C3CCNCC3)c2)cnc1N)c1c(Cl)ccc(F)c1Cl [crizotinib]
Summary of the method: as §1

[5] = compound: C[C@@H]1COCCN1C2=NC(=NC(=C2)C3(CC3)S(=O)(=O)C)C4=C5C=CNC5=CC=C4
Summary of the method: as §1

[6] = compound: C[C@H](C1=CC=C(C=C1)C(=O)NC2=C3C=CNC3=NC=C2)N
Summary of the method: as §1

duvelisib = compound: C[C@H](Nc1ncnc2nc[nH]c12)c1cc2cccc(Cl)c2c(=O)n1-c1ccccc1 [duvelisib]
Summary of the method: as §1

gandotinib = compound: Cc1cc(Nc2cc(CN3CCOCC3)c3nc(C)c(Cc4ccc(Cl)cc4F)n3n2)n[nH]1 [gandotinib]
Summary of the method: as §1

tozasertib = compound: Cc1cc(Nc2cc(N3CCN(C)CC3)nc(Sc3ccc(NC(=O)C4CC4)cc3)n2)n[nH]1 [tozasertib]
Summary of the method: as §1

[7] = compound: Cc1cc(SCc2sc(-c3ccc(C(F)(F)F)cc3)nc2C)ccc1OCC(=O)O
Summary of the method: as §1

doramapimod = compound: Cc1ccc(-n2nc(C(C)(C)C)cc2NC(=O)Nc2ccc(OCCN3CCOCC3)c3ccccc23)cc1 [doramapimod]
Summary of the method: as §1

ispinesib = compound: Cc1ccc(C(=O)N(CCCN)[C@@H](c2nc3cc(Cl)ccc3c(=O)n2Cc2ccccc2)C(C)C)cc1 [ispinesib]
Summary of the method: as §1

Measured: log2 fold change

NAGLU (UniProt P54802)
inactive: [1] 0.052 | filanesib 0.004 | zotarolimus 0.046 | idasanutlin 0.018 | alisertib 0.072 | [2] -0.052 | gefitinib 0.04 | [3] 0.066 | lapatinib 0.017 | pictilisib 0.068 | [4] -0.035 | crizotinib -0.017 | [5] -0.121 | [6] -0.106 | duvelisib 0.002 | gandotinib 0.011 | tozasertib 0.027 | [7] -0.049 | doramapimod -0.052 | ispinesib -0.069

NDUFS6 (UniProt O75380)
inactive: [1] -0.093 | filanesib -0.004 | zotarolimus -0.064 | idasanutlin 0.025 | alisertib -0.026 | [2] -0.101 | gefitinib -0.065 | [3] 0.042 | lapatinib 0 | pictilisib -0.025 | [4] -0.001 | crizotinib -0.082 | [5] 0.025 | [6] 0.071 | duvelisib -0.026 | gandotinib 0.04 | tozasertib -0.084 | [7] -0.053 | doramapimod 0.034 | ispinesib -0.081

NAT10 (UniProt Q9H0A0)
inactive: [1] -0.049 | filanesib 0.503 | zotarolimus 0.091 | idasanutlin 0.25 | alisertib -0.098 | [2] 0.017 | gefitinib 0.015 | [3] -0.279 | lapatinib 0.145 | pictilisib -0.132 | [4] 0.022 | crizotinib -0.129 | [5] -0.19 | [6] 0.559 | duvelisib -0.147 | gandotinib 0.019 | tozasertib 0.088 | [7] 0.123 | doramapimod 0.105 | ispinesib -0.141

NDRG2 (UniProt Q9UN36)
inactive: [1] 0.044 | filanesib -0.014 | zotarolimus 0.028 | idasanutlin -0.023 | alisertib -0.011 | [2] 0.007 | gefitinib 0.006 | [3] 0.026 | lapatinib -0.02 | pictilisib 0.002 | [4] 0.037 | crizotinib -0.068 | [5] -0.01 | [6] 0.019 | duvelisib -0.013 | gandotinib -0.011 | tozasertib 0.017 | [7] 0.065 | doramapimod -0.067 | ispinesib 0.087

NARS1 (UniProt O43776)
inactive: [1] -0.02 | filanesib 0.016 | zotarolimus -0.002 | idasanutlin 0.059 | alisertib -0.031 | [2] 0.009 | gefitinib -0.005 | [3] 0.022 | lapatinib -0.038 | pictilisib 0 | [4] -0.002 | crizotinib 0.032 | [5] -0.018 | [6] 0.028 | duvelisib 0.002 | gandotinib -0.022 | tozasertib -0.03 | [7] -0.036 | doramapimod 0.007 | ispinesib 0.004

NDUFC2 (UniProt O95298)
inactive: [1] 0.236 | filanesib -0.012 | zotarolimus -0.057 | idasanutlin -0.034 | alisertib 0.017 | [2] -0.127 | gefitinib 0 | [3] 0.105 | lapatinib -0.048 | pictilisib -0.011 | [4] 0.005 | crizotinib -0.013 | [5] 0.103 | [6] -0.018 | duvelisib 0.033 | gandotinib 0.081 | tozasertib -0.025 | [7] -0.008 | doramapimod 0.098 | ispinesib -0.112

NDUFB4 (UniProt O95168)
inactive: [1] -0.055 | filanesib -0.107 | zotarolimus 0.001 | idasanutlin 0.101 | alisertib -0.154 | [2] -0.019 | gefitinib -0.007 | [3] -0.028 | lapatinib -0.056 | pictilisib 0.018 | [4] 0.024 | crizotinib 0.094 | [5] 0.096 | [6] -0.01 | duvelisib 0.019 | gandotinib 0.089 | tozasertib 0.012 | [7] 0.021 | doramapimod -0.029 | ispinesib -0.032

NAMPT (UniProt P43490)
inactive: [1] -0.076 | filanesib -0.043 | zotarolimus -0.018 | idasanutlin -0.023 | alisertib -0.039 | [2] 0.029 | gefitinib 0.025 | [3] 0.06 | lapatinib -0.04 | pictilisib 0.013 | [4] -0.003 | crizotinib 0.076 | [5] 0.038 | [6] -0.041 | duvelisib 0.025 | gandotinib 0.006 | tozasertib -0.027 | [7] -0.041 | doramapimod -0.039 | ispinesib 0.02

2 consecutive records already listed, for reference:
NDRG2 (UniProt Q9UN36)
inactive: [1] 0.044 | filanesib -0.014 | zotarolimus 0.028 | idasanutlin -0.023 | alisertib -0.011 | [2] 0.007 | gefitinib 0.006 | [3] 0.026 | lapatinib -0.02 | pictilisib 0.002 | [4] 0.037 | crizotinib -0.068 | [5] -0.01 | [6] 0.019 | duvelisib -0.013 | gandotinib -0.011 | tozasertib 0.017 | [7] 0.065 | doramapimod -0.067 | ispinesib 0.087

NARS1 (UniProt O43776)
inactive: [1] -0.02 | filanesib 0.016 | zotarolimus -0.002 | idasanutlin 0.059 | alisertib -0.031 | [2] 0.009 | gefitinib -0.005 | [3] 0.022 | lapatinib -0.038 | pictilisib 0 | [4] -0.002 | crizotinib 0.032 | [5] -0.018 | [6] 0.028 | duvelisib 0.002 | gandotinib -0.022 | tozasertib -0.03 | [7] -0.036 | doramapimod 0.007 | ispinesib 0.004

The list continues.

NDUFB5 (UniProt O43674)
inactive: [1] 0.033 | filanesib -0.069 | zotarolimus -0.024 | idasanutlin -0.007 | alisertib -0.019 | [2] -0.191 | gefitinib -0.013 | [3] 0.05 | lapatinib 0.078 | pictilisib -0.063 | [4] -0.01 | crizotinib -0.053 | [5] 0.028 | [6] -0.072 | duvelisib -0.024 | gandotinib 0.02 | tozasertib 0.01 | [7] -0.029 | doramapimod 0.012 | ispinesib -0.146

NECAP1 (UniProt Q8NC96)
inactive: [1] -0.002 | filanesib -0.053 | zotarolimus 0.071 | idasanutlin -0.02 | alisertib -0.021 | [2] -0.001 | gefitinib 0.022 | [3] 0.046 | lapatinib 0.004 | pictilisib 0.114 | [4] 0.04 | crizotinib -0.005 | [5] 0.114 | [6] -0.022 | duvelisib 0.069 | gandotinib 0.007 | tozasertib 0.061 | [7] 0.073 | doramapimod -0.027 | ispinesib -0.039

NCBP2 (UniProt P52298)
inactive: [1] -0.132 | filanesib 0.002 | zotarolimus 0.01 | idasanutlin -0.002 | alisertib -0.014 | [2] 0.099 | gefitinib 0.072 | [3] -0.003 | lapatinib -0.037 | pictilisib 0.048 | [4] 0.031 | crizotinib 0.169 | [5] 0.038 | [6] -0.019 | duvelisib 0.04 | gandotinib -0.013 | tozasertib -0.019 | [7] 0.052 | doramapimod -0.028 | ispinesib 0.005

NCDN isoform 3 (UniProt Q9UBB6)
inactive: [1] 0.009 | filanesib 0.018 | zotarolimus 0.055 | idasanutlin -0.031 | alisertib 0.129 | [2] 0.129 | gefitinib 0.017 | [3] 0.109 | lapatinib -0.111 | pictilisib 0.115 | [4] 0.077 | crizotinib -0.171 | [5] 0.063 | [6] 0.043 | duvelisib 0.061 | gandotinib -0.026 | tozasertib 0.024 | [7] 0.05 | doramapimod -0.031 | ispinesib -0.106

NDUFAF5 (UniProt Q5TEU4)
inactive: [1] 0.021 | filanesib -0.094 | zotarolimus 0.007 | idasanutlin -0.021 | alisertib 0.053 | [2] 0.01 | gefitinib 0 | [3] -0.117 | lapatinib 0.017 | pictilisib -0.016 | [4] -0.018 | crizotinib 0.05 | [5] 0.004 | [6] -0.057 | duvelisib 0.045 | gandotinib -0.11 | tozasertib -0.015 | [7] 0.016 | doramapimod 0 | ispinesib 0.129

NDUFB11 isoform 2 (UniProt Q9NX14)
inactive: [1] 0.026 | filanesib -0.065 | zotarolimus 0.029 | idasanutlin -0.045 | alisertib -0.011 | [2] -0.099 | gefitinib -0.014 | [3] 0.017 | lapatinib 0.006 | pictilisib -0.003 | [4] -0.012 | crizotinib 0.086 | [5] 0.027 | [6] -0.059 | duvelisib 0.039 | gandotinib 0.017 | tozasertib 0.045 | [7] -0.011 | doramapimod -0.016 | ispinesib -0.036

NDUFV1 (UniProt P49821)
inactive: [1] -0.089 | filanesib -0.056 | zotarolimus 0.053 | idasanutlin -0.054 | alisertib -0.039 | [2] 0.013 | gefitinib 0.009 | [3] 0.054 | lapatinib -0.019 | pictilisib -0.017 | [4] 0.036 | crizotinib -0.055 | [5] 0.006 | [6] -0.031 | duvelisib 0.066 | gandotinib -0.018 | tozasertib -0.051 | [7] 0.01 | doramapimod 0.008 | ispinesib -0.044

NAV1 (UniProt Q8NEY1)
inactive: [1] -0.107 | filanesib 0.12 | zotarolimus 0.08 | idasanutlin 0.037 | alisertib 0.007 | [2] -0.329 | gefitinib 0.157 | [3] -0.177 | lapatinib 0.044 | pictilisib -0.004 | [4] 0.104 | crizotinib -0.269 | [5] -0.066 | [6] 0.222 | duvelisib 0.058 | gandotinib 0.129 | tozasertib -0.183 | [7] -0.004 | doramapimod 0.097 | ispinesib -0.352
